Test results published in patent US20160362464A1.
These are yes or no findings as the source states them, for the method shown. For some assays here: In cells and extracts the contact can be indirect. Some entries that bind do so weakly or less than the wild type. For some assays here: Sequences can lack the tags named with a protein.

Sequences of proteins named here, by UniProt entry; tags and fusion partners are left off.
UniProt P08753: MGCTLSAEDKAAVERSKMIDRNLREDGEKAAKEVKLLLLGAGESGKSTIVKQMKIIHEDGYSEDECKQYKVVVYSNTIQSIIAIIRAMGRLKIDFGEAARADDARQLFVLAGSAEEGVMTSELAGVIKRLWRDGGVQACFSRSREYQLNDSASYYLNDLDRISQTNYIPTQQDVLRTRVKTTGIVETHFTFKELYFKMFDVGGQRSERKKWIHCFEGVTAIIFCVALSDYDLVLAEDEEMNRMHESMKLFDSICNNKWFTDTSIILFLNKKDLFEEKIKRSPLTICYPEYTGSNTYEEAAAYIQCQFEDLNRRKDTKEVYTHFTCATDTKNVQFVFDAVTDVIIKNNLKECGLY

Key:
[1] = target: GST-Gαi3 preloaded with GDP (inactive) (rat) (UniProt P08753); assay: GST pulldown from cell lysates (FIG. 1E)
Gαi3-FLAG (rat) [2] = target: Gαi3-FLAG (rat) (UniProt P08753); assay: co-immunoprecipitation (FIG. 2E); the WT binds
[3] = target: GST-Gαi3 preloaded with GDP (inactive) (rat) (UniProt P08753); assay: GST pulldown from Cos7 lysates, immunoblot (FIG. 1E)
Gαi3-FLAG (rat) [4] = target: Gαi3-FLAG (rat) (UniProt P08753); assay: co-immunoprecipitation with anti-FLAG mAb from Cos7 cells (FIG. 2E); the WT binds
Gαi3-FLAG (rat) [5] = target: Gαi3-FLAG (rat) (UniProt P08753); assay: co-immunoprecipitation with anti-FLAG mAb from HEK293 lysates expressing Gαi3-FLAG, immunoblot (FIG. 1C)
Gαi3-FLAG (rat) [6] = target: Gαi3-FLAG (rat) (UniProt P08753); assay: co-immunoprecipitation (FIG. 1C)
GST-GIV (aa 1671-1755) = target: T1, GST-GIV (aa 1671-1755) (UniProt Q3V6T2); assay: GST pulldown with 0.01-3 µM His-Gαi3, quantified immunoblot (FIG. 1F)
T1 sequence (looked up): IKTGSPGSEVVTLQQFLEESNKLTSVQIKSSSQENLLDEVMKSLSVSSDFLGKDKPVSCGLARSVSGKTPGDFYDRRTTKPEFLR

GST-DAPLE-CT (human) = target: T2, GST-DAPLE-CT (human) (UniProt Q9P219); assay: as above
T2 sequence: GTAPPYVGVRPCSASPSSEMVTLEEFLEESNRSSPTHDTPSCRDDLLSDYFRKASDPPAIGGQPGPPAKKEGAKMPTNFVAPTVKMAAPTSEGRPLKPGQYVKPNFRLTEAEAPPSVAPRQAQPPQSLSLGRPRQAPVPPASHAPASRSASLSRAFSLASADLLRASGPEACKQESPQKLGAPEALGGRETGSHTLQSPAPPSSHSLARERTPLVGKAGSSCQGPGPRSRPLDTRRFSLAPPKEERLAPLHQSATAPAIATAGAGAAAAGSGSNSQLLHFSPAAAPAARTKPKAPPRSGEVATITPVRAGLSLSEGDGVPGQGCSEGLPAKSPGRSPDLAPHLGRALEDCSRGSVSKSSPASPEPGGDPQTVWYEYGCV

myc-DAPLE full length WT (from UniProt Q9P219 1-2028)
binding [1]: binds
binding (Gαi3-FLAG (rat) [2]): binds
binding [3]: binds
binding (Gαi3-FLAG (rat) [4]): binds

endogenous full-length DAPLE (HEK293 cells) (from UniProt Q9P219 1-2028)
binding (Gαi3-FLAG (rat) [5]): binds
binding (Gαi3-FLAG (rat) [6]): binds

His-Gαi3 (GDP-loaded) (from UniProt P08753 1-354)
binding (GST-GIV (aa 1671-1755)): binds
binding (GST-DAPLE-CT (human)): binds
